# Test results published in the supplement of paper PMC6411743.
# Protein sequences, listed by entry. Tags and fused reporters are not part of them. Lines headed by an entry give the natural chain unless they say otherwise; changes in a name come on top.
# UniProt Q8N6M0: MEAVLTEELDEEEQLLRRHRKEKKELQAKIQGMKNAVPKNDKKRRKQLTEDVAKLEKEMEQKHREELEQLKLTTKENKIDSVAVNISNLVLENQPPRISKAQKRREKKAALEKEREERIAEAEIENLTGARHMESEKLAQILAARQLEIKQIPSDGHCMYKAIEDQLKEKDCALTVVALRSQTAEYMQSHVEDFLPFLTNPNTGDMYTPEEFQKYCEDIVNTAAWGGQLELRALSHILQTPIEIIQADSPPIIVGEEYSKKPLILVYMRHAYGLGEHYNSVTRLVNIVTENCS
# UniProt P25440, whole entry, looked up: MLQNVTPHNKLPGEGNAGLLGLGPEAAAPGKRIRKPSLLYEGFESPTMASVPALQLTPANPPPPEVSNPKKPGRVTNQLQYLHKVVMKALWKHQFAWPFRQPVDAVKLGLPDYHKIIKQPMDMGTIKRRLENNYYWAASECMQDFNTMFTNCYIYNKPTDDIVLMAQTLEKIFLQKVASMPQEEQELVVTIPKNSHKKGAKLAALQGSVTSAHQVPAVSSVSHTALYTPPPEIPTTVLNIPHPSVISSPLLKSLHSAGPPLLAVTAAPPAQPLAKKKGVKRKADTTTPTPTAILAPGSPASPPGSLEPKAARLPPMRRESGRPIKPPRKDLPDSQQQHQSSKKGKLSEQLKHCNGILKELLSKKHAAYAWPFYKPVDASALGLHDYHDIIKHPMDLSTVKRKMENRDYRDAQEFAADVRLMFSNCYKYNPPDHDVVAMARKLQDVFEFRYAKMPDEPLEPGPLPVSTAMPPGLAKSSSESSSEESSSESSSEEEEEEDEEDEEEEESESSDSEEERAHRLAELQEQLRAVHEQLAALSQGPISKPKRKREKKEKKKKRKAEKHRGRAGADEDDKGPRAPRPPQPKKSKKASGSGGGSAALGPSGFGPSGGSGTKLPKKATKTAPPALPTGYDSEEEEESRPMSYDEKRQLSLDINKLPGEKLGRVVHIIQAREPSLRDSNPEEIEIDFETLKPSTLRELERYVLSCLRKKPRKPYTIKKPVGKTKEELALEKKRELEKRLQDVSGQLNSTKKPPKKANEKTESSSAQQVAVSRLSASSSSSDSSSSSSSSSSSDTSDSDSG
# UniProt P61077: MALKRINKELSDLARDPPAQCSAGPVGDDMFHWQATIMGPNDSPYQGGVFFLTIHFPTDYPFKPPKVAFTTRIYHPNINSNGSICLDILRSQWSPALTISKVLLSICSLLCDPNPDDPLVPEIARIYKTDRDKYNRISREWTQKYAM
# UniProt A5YKK6, whole entry: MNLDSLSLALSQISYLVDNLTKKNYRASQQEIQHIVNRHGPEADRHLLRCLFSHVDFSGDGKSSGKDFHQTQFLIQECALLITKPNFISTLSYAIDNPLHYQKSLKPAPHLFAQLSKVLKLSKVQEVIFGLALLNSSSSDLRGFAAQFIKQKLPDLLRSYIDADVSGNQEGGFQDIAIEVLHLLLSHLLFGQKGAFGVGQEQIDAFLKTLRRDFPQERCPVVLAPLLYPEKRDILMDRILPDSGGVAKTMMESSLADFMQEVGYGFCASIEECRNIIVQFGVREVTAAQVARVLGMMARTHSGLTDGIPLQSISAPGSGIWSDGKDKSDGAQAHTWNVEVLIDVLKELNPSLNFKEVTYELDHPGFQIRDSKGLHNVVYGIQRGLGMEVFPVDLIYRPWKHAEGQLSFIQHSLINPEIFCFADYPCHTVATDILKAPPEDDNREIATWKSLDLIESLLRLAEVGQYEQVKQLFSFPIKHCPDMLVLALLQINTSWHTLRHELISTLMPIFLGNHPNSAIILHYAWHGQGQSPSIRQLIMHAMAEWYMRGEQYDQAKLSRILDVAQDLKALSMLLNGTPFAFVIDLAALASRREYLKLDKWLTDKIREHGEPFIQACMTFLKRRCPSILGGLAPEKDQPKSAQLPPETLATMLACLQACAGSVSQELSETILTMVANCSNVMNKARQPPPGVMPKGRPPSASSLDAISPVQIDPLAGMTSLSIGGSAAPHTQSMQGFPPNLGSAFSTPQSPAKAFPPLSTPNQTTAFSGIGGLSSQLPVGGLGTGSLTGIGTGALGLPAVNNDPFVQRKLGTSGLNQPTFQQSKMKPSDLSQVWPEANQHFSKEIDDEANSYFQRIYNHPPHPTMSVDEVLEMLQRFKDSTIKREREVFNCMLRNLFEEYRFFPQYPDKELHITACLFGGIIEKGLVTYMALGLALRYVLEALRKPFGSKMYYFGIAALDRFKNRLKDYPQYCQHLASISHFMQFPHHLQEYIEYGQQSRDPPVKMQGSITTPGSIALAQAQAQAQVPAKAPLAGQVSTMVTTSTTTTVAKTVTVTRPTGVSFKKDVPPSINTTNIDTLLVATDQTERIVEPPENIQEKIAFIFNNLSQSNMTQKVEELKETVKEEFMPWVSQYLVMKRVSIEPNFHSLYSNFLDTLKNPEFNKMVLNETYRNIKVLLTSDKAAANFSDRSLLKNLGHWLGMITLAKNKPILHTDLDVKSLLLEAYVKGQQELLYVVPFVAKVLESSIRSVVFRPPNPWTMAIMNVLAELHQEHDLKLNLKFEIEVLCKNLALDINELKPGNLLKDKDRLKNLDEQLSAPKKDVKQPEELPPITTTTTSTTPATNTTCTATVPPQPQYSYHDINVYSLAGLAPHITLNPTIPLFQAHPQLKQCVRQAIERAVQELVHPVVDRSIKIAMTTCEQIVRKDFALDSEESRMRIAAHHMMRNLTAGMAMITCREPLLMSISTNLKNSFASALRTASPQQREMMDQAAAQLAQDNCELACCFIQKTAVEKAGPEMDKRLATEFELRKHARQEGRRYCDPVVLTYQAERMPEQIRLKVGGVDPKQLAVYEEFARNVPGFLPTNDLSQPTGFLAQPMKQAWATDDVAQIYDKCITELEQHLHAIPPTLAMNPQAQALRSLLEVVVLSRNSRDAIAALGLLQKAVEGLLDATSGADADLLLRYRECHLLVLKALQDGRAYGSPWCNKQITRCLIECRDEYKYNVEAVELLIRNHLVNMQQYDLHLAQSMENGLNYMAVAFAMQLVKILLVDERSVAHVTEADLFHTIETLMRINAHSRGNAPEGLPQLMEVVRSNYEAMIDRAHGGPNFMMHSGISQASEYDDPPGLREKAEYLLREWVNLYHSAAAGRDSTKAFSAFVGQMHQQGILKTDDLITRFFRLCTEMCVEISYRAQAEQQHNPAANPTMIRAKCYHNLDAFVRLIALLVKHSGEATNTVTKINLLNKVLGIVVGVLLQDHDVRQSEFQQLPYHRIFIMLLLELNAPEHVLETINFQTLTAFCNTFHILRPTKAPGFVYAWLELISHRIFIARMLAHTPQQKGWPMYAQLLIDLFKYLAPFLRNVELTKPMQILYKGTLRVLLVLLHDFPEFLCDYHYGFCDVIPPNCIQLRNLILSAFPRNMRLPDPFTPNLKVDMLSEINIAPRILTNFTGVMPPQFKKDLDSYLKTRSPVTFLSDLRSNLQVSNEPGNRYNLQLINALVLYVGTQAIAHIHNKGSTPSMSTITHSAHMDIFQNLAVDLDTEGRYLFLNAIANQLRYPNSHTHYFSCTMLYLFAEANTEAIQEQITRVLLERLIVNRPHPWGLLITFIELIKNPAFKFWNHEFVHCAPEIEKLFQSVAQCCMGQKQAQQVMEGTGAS
# UniProt Q5JTV8: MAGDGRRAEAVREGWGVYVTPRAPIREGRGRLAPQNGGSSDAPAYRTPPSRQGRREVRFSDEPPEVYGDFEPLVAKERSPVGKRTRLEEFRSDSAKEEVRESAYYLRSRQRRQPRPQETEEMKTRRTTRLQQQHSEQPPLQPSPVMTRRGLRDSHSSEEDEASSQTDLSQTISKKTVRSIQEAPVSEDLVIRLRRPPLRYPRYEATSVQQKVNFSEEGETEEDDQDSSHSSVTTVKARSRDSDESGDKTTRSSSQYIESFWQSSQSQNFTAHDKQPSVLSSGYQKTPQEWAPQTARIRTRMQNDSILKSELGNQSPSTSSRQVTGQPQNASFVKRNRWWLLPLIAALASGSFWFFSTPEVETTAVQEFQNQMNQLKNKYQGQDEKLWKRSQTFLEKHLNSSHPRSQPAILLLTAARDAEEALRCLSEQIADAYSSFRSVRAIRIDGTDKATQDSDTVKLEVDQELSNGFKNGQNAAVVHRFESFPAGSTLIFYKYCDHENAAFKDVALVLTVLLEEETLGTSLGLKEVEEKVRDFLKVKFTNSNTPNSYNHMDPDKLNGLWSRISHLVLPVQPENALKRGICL
# UniProt Q9HB19: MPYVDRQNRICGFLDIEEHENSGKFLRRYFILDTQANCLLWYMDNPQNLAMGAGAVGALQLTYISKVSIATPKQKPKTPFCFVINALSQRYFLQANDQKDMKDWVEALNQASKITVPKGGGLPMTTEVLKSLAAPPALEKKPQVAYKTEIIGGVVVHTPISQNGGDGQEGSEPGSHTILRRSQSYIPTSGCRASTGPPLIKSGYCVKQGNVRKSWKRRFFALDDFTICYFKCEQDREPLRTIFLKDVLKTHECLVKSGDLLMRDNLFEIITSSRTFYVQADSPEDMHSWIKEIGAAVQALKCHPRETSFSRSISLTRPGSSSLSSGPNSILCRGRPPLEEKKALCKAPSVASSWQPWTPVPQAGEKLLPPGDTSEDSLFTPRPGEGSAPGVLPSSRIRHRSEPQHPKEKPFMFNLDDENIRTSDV
# UniProt Q5TBB1: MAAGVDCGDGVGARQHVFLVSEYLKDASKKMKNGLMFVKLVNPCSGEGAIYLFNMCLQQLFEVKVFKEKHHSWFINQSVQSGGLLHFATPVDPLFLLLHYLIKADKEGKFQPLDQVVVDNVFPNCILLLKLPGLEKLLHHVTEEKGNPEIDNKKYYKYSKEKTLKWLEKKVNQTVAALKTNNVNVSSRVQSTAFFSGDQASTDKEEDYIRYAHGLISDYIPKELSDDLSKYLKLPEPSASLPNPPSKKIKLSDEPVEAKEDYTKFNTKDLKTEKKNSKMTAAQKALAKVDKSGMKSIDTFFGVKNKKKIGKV
# UniProt Q9P2K5: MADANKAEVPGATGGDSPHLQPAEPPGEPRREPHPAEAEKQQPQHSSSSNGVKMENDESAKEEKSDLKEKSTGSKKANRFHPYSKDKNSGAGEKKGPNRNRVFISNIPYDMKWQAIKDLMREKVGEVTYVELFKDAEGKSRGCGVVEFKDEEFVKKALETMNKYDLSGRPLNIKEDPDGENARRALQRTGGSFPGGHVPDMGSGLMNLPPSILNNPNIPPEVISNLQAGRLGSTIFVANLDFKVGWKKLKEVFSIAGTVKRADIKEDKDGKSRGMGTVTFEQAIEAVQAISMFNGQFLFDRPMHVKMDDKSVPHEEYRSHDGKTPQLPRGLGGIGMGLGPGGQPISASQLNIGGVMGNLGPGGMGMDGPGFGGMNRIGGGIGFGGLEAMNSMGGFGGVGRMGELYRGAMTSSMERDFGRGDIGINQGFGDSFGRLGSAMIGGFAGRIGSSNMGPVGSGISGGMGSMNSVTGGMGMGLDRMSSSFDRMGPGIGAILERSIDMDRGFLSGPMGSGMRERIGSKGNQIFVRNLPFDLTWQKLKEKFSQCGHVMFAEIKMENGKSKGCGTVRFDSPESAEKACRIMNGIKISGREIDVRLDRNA
# UniProt Q9NZ09: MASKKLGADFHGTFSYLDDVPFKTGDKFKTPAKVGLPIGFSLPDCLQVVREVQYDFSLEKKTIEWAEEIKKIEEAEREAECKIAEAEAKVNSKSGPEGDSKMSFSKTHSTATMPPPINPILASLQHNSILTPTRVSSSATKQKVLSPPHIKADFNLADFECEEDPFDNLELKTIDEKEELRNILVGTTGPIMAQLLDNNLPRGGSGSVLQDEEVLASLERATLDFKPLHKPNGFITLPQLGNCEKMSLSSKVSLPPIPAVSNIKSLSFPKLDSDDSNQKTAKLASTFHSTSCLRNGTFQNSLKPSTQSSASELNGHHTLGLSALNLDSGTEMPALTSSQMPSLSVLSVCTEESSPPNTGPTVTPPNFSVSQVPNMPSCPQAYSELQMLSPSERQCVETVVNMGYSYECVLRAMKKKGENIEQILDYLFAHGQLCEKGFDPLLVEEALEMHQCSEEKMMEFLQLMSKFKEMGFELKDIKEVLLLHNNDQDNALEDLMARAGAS
# UniProt Q13555: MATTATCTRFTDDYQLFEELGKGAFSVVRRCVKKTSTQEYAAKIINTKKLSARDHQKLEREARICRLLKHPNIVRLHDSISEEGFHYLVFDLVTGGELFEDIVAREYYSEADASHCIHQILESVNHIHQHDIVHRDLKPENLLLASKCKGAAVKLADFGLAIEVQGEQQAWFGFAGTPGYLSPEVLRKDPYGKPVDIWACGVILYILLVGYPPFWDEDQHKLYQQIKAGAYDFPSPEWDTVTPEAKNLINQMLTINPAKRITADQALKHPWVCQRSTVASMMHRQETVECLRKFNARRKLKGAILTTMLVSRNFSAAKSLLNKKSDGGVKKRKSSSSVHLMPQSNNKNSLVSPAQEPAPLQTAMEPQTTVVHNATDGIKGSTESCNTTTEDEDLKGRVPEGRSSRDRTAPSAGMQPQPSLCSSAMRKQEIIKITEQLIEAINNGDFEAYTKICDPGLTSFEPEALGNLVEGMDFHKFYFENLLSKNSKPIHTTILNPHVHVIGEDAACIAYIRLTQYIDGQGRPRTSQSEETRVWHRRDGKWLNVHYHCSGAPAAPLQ
# ± gives the standard deviation of the averaged measurements. The list shows a part of the results.
# Compound: Nc1nc2c(ncn2[C@@H]2O[C@H](COP(=O)(O)OP(=O)(O)OP(=O)(O)O)[C@@H](O)[C@H]2O)c(=O)[nH]1 [guanosine triphosphate]
# Assay: NP40-soluble protein abundance relative to vehicle (solubility fold change) (ratio); higher = more soluble protein in presence of GTP
# How it was run: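 Across three independent experiments, values are fold changes against the detergent-processed vehicle for each replicate, based on vsn-normalised intensities. The samples were Jurkat crude lysate treated with eight concentrations (0.1 to 10 mM) for 10 min at room temperature and then 3 min at 37 °C. Lysate was solubilised with 0.8% NP40 and benzonase, ultracentrifuged, and the supernatant analysed by TMT-labelled LC-MS/MS.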
Target,NP40-soluble protein abundance (concentration: 0.1mM),NP40-soluble protein abundance (concentration: 0.5mM),NP40-soluble protein abundance (concentration: 1mM),NP40-soluble protein abundance (concentration: 2mM),NP40-soluble protein abundance (concentration: 4mM),NP40-soluble protein abundance (concentration: 6mM),NP40-soluble protein abundance (concentration: 8mM),NP40-soluble protein abundance (concentration: 10mM)
A0A087X0W9|Q8N6M0 (UniProt Q8N6M0),0.972 ± 0.062,0.937 ± 0.066,0.927 ± 0.072,0.885 ± 0.084,0.849 ± 0.042,0.901 ± 0.074,0.872 ± 0.055,0.868 ± 0.069
A0A0G2JK44|P25440 and related entries (UniProt P25440),0.984 ± 0.086,0.945 ± 0.061,0.97 ± 0.076,1.01 ± 0.1,1.09 ± 0.06,1.14 ± 0.078,1.21 ± 0.1,1.25 ± 0.1
A0A087WY85|P61077 and related entries (UniProt P61077),1 ± 0.083,0.965 ± 0.054,0.874 ± 0.044,0.888 ± 0.087,0.876 ± 0.064,0.828 ± 0.033,0.795 ± 0.086,0.804 ± 0.087
A0A087WYU1|A0A087WZW2|Q9Y5X1 (UniProt Q9Y5X1),1.02 ± 0.066,1.03 ± 0.038,1.01 ± 0.064,1.06 ± 0.072,0.996 ± 0.058,1.03 ± 0.034,1.08 ± 0.088,1.07 ± 0.066
CNOT1 (UniProt A5YKK6),1.1 ± 0.013,1.09 ± 0.033,1.13 ± 0.032,1.19 ± 0.1,1.31 ± 0.18,1.3 ± 0.17,1.33 ± 0.15,1.34 ± 0.15
A0A0C4DFP4|Q96IV0 and related entries (UniProt Q96IV0),0.979 ± 0.033,1.02 ± 0.013,0.93 ± 0.01,0.937 ± 0.037,0.949 ± 0.028,0.943 ± 0.057,0.8946 ± 0.0062,0.888 ± 0.032
A2IDC6 and related entries (UniProt Q13084),1.18 ± 0.25,1.3 ± 0.35,1.48 ± 0.56,1.5 ± 0.61,1.36 ± 0.54,1.39 ± 0.58,1.33 ± 0.58,1.21 ± 0.48
A0A0A0MRF9|P16885 (UniProt P16885),1.05 ± 0.049,1.08 ± 0.091,0.934 ± 0.045,1 ± 0.099,0.963 ± 0.079,0.943 ± 0.07,0.892 ± 0.043,0.868 ± 0.049
A0A0C4DFL8|F5GX28 and related entries (UniProt O94953),0.979 ± 0.09,0.964 ± 0.055,0.924 ± 0.2,0.964 ± 0.19,0.926 ± 0.14,0.873 ± 0.11,0.91 ± 0.17,0.923 ± 0.096
A0A0A0MTB0|A0A0J9YYI4|D6RHG7 and related entries (UniProt Q86VE9),1.03 ± 0.092,0.988 ± 0.11,0.989 ± 0.026,0.962 ± 0.054,0.933 ± 0.028,0.922 ± 0.039,0.926 ± 0.014,0.924 ± 0.021
A0A0A0MSK5|Q5JTV8 and related entries (UniProt Q5JTV8),0.895 ± 0.045,0.899 ± 0.062,0.91 ± 0.066,0.893 ± 0.085,0.867 ± 0.079,0.899 ± 0.094,0.878 ± 0.058,0.893 ± 0.087
A0A0U1RQK7|A0A0A0MSA7|O43432 and related entries (UniProt O43432),1.05 ± 0.079,1.02 ± 0.031,1.07 ± 0.079,1.06 ± 0.075,1.09 ± 0.057,1.05 ± 0.035,1.09 ± 0.091,1.05 ± 0.031
A0A140T9L0|O15213 (UniProt O15213),1.054 ± 0.0015,1.14 ± 0.018,1.07 ± 0.07,1.17 ± 0.015,1.14 ± 0.18,1.21 ± 0.093,1.28 ± 0.14,1.256 ± 0.012
A0A087X038|A8K727 (UniProt Q9HB19),0.938 ± 0.051,1 ± 0.083,0.943 ± 0.082,0.969 ± 0.065,0.984 ± 0.075,1.01 ± 0.091,1.03 ± 0.12,1.03 ± 0.095
A0A0A0MRS5|A0A0C4DG97|F8W946 and related entries (UniProt Q9BXM9),1.02 ± 0.054,0.993 ± 0.033,1.02 ± 0.1,0.977 ± 0.088,0.989 ± 0.11,0.947 ± 0.085,0.986 ± 0.091,0.918 ± 0.066
A0A087WXR7|Q5TBB1 (UniProt Q5TBB1),0.893 ± 0.11,0.906 ± 0.1,0.906 ± 0.11,0.867 ± 0.12,0.854 ± 0.11,0.88 ± 0.11,0.866 ± 0.13,0.866 ± 0.12
A0A0A0MTH9|O14981 (UniProt O14981),1.01 ± 0.039,1.01 ± 0.04,0.96 ± 0.025,0.985 ± 0.021,0.984 ± 0.027,0.9311 ± 0.005,0.97 ± 0.024,0.935 ± 0.015
A0A087WYG2|E9PFH7 and related entries (UniProt Q9UPT6),0.973 ± 0.05,0.964 ± 0.078,1.06 ± 0.036,0.979 ± 0.069,1.01 ± 0.23,0.992 ± 0.054,1.04 ± 0.046,0.966 ± 0.096
A0A0A0MSJ9|Q15283 and related entries (UniProt Q15283),1.05 ± 0.057,1.07 ± 0.065,0.985 ± 0.018,0.998 ± 0.04,1.01 ± 0.054,0.967 ± 0.048,0.94 ± 0.067,0.927 ± 0.13
A0A0A0MQZ6|O95478 (UniProt O95478),1.01 ± 0.13,0.93 ± 0.035,0.943 ± 0.13,1.09 ± 0.12,1.23 ± 0.023,1.3 ± 0.11,1.16 ± 0.23,1.2 ± 0.18
A0A0A0MTC5|A0A0A0MTD1|E7EPX0 and related entries (UniProt Q9NUL3),1.04 ± 0.025,1.07 ± 0.016,1.11 ± 0.011,1.18 ± 0.063,1.33 ± 0.11,1.36 ± 0.11,1.48 ± 0.14,1.5 ± 0.18
A0A0A0MR39|Q9P2K5-3 (UniProt Q9P2K5),0.967 ± 0.066,1.06 ± 0.045,1.11 ± 0.039,1.13 ± 0.041,1.15 ± 0.078,1.17 ± 0.025,1.19 ± 0.076,1.19 ± 0.1
A0A0D9SG79|Q9NZ09 and related entries (UniProt Q9NZ09),0.906 ± 0.026,0.953 ± 0.059,0.975 ± 0.08,0.958 ± 0.18,0.902 ± 0.05,0.923 ± 0.1,0.882 ± 0.061,1.03 ± 0.053
A0A0A0MS52|Q13555-2|Q13555-8|Q13555-9 (UniProt Q13555),0.955 ± 0.044,0.951 ± 0.064,0.932 ± 0.097,0.93 ± 0.1,0.992 ± 0.11,0.987 ± 0.17,0.994 ± 0.13,0.99 ± 0.12

# 2 entries from above, with tabs:
Target	NP40-soluble protein abundance (concentration: 0.1mM)	NP40-soluble protein abundance (concentration: 0.5mM)	NP40-soluble protein abundance (concentration: 1mM)	NP40-soluble protein abundance (concentration: 2mM)	NP40-soluble protein abundance (concentration: 4mM)	NP40-soluble protein abundance (concentration: 6mM)	NP40-soluble protein abundance (concentration: 8mM)	NP40-soluble protein abundance (concentration: 10mM)
A0A0A0MR39|Q9P2K5-3 (UniProt Q9P2K5)	0.967 ± 0.066	1.06 ± 0.045	1.11 ± 0.039	1.13 ± 0.041	1.15 ± 0.078	1.17 ± 0.025	1.19 ± 0.076	1.19 ± 0.1
A0A0D9SG79|Q9NZ09 and related entries (UniProt Q9NZ09)	0.906 ± 0.026	0.953 ± 0.059	0.975 ± 0.08	0.958 ± 0.18	0.902 ± 0.05	0.923 ± 0.1	0.882 ± 0.061	1.03 ± 0.053
